Experimental data published in the supplement of paper PMC12889115.
Some of the results follow. Values are raw readings; no control value is given beside them.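 First-pass screen: polymyxin B was added at a level that permeabilizes the Salmonella outer membrane while sparing the inner membrane. DMSO wells, with and without polymyxin B, defined maximum growth. Because plates differed from one another, each plate's data were ranked separately and the compounds with the lowest OD600 were carried forward as hits.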

System: Salmonella enterica serovar Typhimurium SL1344
Experiment: bacterial growth OD600 after 18 h with compound and polymyxin B; higher = more bacterial growth (less inhibition)
Conditions: 50 µM, Mueller-Hinton broth

Compound | bacterial growth OD600 (polymyxin B 1 µg/mL) | bacterial growth OD600 (polymyxin B 0.75 µg/mL)
C=CCCC(=O)N1CCC(Oc2cccc(C(=O)NCc3ccccn3)c2)CC1 | 0.841 | 
COc1ccccc1CC(=O)N1CCC(C(Cc2ccccc2)N(C)C(=O)c2ccccn2)CC1 (stereo unspecified) |  | 0.941
CCc1noc(C)c1C(=O)N1CCCC(Nc2cccc(F)c2)C1 (stereo unspecified) | 0.847 | 
Cc1cccc(-n2ccnc2CN2CCCC(N3CCC(CO)CC3)C2)c1 (stereo unspecified) | 0.952 | 
CCC1CN(C(=O)c2cccc(C#CC(C)(C)O)c2)Cc2ccc(Cl)cc2O1 (stereo unspecified) |  | 0.004
O=C(c1cc(-c2ccsc2)n[nH]1)N1CCCC(CO)(Cc2cccc(Cl)c2)C1 (stereo unspecified) |  | 0.014
COc1ccc(-c2cnnc(NCc3cnn(C)c3C)n2)cc1F |  | 0.79
COc1ccc(CCN2CC(C(=O)NCc3ccccc3)CCC2=O)cc1 (stereo unspecified) | 0.88 | 
CCOC(=O)N1CCN(Cc2nc(-c3ccccn3)no2)CC1 | 0.931 | 
COc1ccc(C(=O)NC2CC2)c(OC2CCN(Cc3sccc3C)CC2)c1 |  | 0.76
O=C(NCC(F)(F)F)C1CCN(C2CCN(c3nc4ccccc4o3)CC2)CC1 |  | 0.882
O=C(NCc1ccccc1)C1CCCN(C2CCN(CC3CCCC3)CC2)C1 (stereo unspecified) |  | 0.769
O=C(NCCCN1CCCC(O)C1)c1ccc2oc(CCc3ccccc3)nc2c1 (stereo unspecified) |  | 0.757
COc1cc(CNC(=O)c2sc3ncnc(N4CCCCCCC4)c3c2C)cc(OC)c1OC |  | 0.618
O=C(N1CCC[C@H]1CO)C1(N2CCCCC2)Cc2ccccc2C1 |  | 0.868
COc1cccc(CC2(CCC(=O)N3CCN(c4ncc5ccccc5n4)CC3)CCC(=O)N2)c1 (stereo unspecified) |  | 0.827

2 records drawn at random from the list so far, as already listed:
Compound | bacterial growth OD600 (polymyxin B 1 µg/mL) | bacterial growth OD600 (polymyxin B 0.75 µg/mL)
COc1ccccc1CC(=O)N1CCC(C(Cc2ccccc2)N(C)C(=O)c2ccccn2)CC1 (stereo unspecified) |  | 0.941
COc1cc(CNC(=O)c2sc3ncnc(N4CCCCCCC4)c3c2C)cc(OC)c1OC |  | 0.618

Next structures follow.

Compound | bacterial growth OD600 (polymyxin B 1 µg/mL) | bacterial growth OD600 (polymyxin B 0.75 µg/mL)
CN(Cc1ncc[nH]1)C1CCCN(CCc2ccccc2)C1 (stereo unspecified) | 0.856 | 
COc1ccccc1CN1CCCC(CNC(=O)c2cccs2)C1 (stereo unspecified) | 1.05 | 
COc1cccc(CN2CCN(Cc3ccccc3F)C(CCO)C2)c1OC (stereo unspecified) | 0.932 | 
COCc1c(C(=O)NCC2(N3CCCCC3)CCCCC2)cnn1-c1nccc(-c2cccs2)n1 |  | 0.752
CCN1CCN(C2(C(=O)N(C)Cc3ccc(C)o3)Cc3ccccc3C2)CC1 |  | 0.776
COc1ccc(-c2cnnc(N3CC[C@@H]4CCCC[C@H]4C3)n2)cc1 |  | 0.192
Cc1ccc(CNC(=O)C2(N(C)C)Cc3ccccc3C2)s1 | 1.04 | 
O=C(CCC1CCN(C(=O)C2=CCCCC2)CC1)Nc1ccc2c(c1)OCCO2 | 0.904 | 
COC(=O)CC(NC1CCN(c2cccc(NC(=O)CCCc3ccccc3)c2)CC1)C(=O)OC (stereo unspecified) |  | 0.703
O=C(NCC1CCCCO1)c1cc(COc2ccc3c(c2)OCO3)[nH]n1 (stereo unspecified) | 0.878 | 
CC1CN(Cc2cccc3ncccc23)Cc2ccccc2O1 (stereo unspecified) |  | 0.901
CN(Cc1ccccc1)Cc1cc(C(=O)NCc2c[nH]nc2-c2ccccc2)no1 | 1.12 | 
COc1ccccc1-c1ccnc(-n2ncc(C(=O)NCCc3cccnc3)c2C2CC2)n1 |  | 0.884
Cc1cccc(CN2CCCC(O)(CN3CCNC(=O)C3(C)C)C2=O)c1 (stereo unspecified) | 0.917 | 
COc1cc(OC)c(OC)cc1CN1CCOc2ccc(C(C)(O)COc3ccccc3)cc2C1 (stereo unspecified) |  | 0.559
